# Data published in article PMC7819943, “Rice protein-binding microarrays: a tool to detect cis-acting elements near promoter regions in rice”.
# Some of the results follow.
# Molecular target: T1, OsSMF1 (Oryza sativa, UniProt Q6ZLB0 1-436)
# T1 sequence: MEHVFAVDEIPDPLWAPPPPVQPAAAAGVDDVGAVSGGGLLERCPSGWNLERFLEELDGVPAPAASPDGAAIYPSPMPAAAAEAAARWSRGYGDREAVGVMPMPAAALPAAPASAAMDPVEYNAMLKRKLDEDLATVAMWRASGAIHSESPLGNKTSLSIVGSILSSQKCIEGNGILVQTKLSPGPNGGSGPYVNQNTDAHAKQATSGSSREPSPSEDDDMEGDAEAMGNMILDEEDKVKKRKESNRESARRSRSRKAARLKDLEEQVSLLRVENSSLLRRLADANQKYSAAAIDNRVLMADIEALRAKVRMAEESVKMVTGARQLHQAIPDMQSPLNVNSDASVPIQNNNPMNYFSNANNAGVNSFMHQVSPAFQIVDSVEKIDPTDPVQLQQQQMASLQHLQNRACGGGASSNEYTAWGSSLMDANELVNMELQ
# Test: protein-binding microarray (RPBM); PBS, 2% BSA, 51.3 ng/ul salmon testes DNA, 50 uM zinc acetate, 200 nM TF, 25 C, 1 h; high values mean tight binding
# Conditions: protein: recombinant; tags: N-terminal polyhistidine and DsRed monomer fusion (pET32a); chain copies: 2; label: CyDye5-dUTP incorporated in the synthesized complementary strand; 3' TTTTT single-stranded linker to array surface; dsDNA, one strand shown
# How it was run: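 The binding signal is fluorescence intensity per array feature (arbitrary units). Readings came from an Axon 4000B scanner after a washed, 2% BSA-blocked, double-stranded custom Agilent array had been incubated for 1 h at 25 °C with 200 nM protein and 50 µM zinc acetate. The protein was a Ni–NTA-purified transcription factor fused N-terminally to polyhistidine and DsRed, expressed in E. coli BL21-CodonPlus.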
row,Sequence,binding signal
1,CTTCGTCGCTTCCGCGTGTCGTCACACTCCACTCCGTCCACGGAGTCACCTAGTGCAG,5840 fluorescence intensity (a.u.)
2,AAGAGGTGACGTGAAAACTCGTCCTCGCCTTGGTTTTAAGCGGAGTCACCTAGTGCAG,3680 fluorescence intensity (a.u.)
3,TTCAGATCCGCGCGCTGAGGTCACTGTAGAACACGGCGGTCGGAGTCACCTAGTGCAG,13500 fluorescence intensity (a.u.)
4,TAATGGATTTGTTTGGTCATCTACATGGGAGGGTGGCTCACGGAGTCACCTAGTGCAG,4710 fluorescence intensity (a.u.)
5,CGAGCAGCAGCCCATGTGGGCCCACCTCGTCAGCGGCACGCGGAGTCACCTAGTGCAG,5000 fluorescence intensity (a.u.)
6,TCTGTAGCCGAAGTCACTTAACTTTATCACTGATATGTGGCGGAGTCACCTAGTGCAG,3230 fluorescence intensity (a.u.)
7,CAAGCTCGGTAGGAGTAGCAGTAGCTCTGTTGTTCGGTTGCGGAGTCACCTAGTGCAG,37200 fluorescence intensity (a.u.)
8,CGTCCACCGCGCCGCCGCCGCCCTCCGTCACGCGCGCGCTCGGAGTCACCTAGTGCAG,3270 fluorescence intensity (a.u.)
9,ATTACTCTCGCTGTCGCTGGCCGTGGCGTTCCTGGCCGCACGGAGTCACCTAGTGCAG,3240 fluorescence intensity (a.u.)
10,CCAAAGGGGCAAGCCTATACACTATTTACCTGAACTTTGCCGGAGTCACCTAGTGCAG,3300 fluorescence intensity (a.u.)
11,CTCCTCCGTCTCGCGCCCGCCGCCGCCGCCACCGCCACCGCGGAGTCACCTAGTGCAG,4480 fluorescence intensity (a.u.)
12,CTTGCTCTCCGCCAGCTCTGCCACCTCCTCGCACGCGCCGCGGAGTCACCTAGTGCAG,3740 fluorescence intensity (a.u.)
13,TTAGCCCTTTTGCTTCATATGTTTGACCAGATGCTTTCAACGGAGTCACCTAGTGCAG,25600 fluorescence intensity (a.u.)
14,CCTCCTCCGGCTCCATCAGCTCGTCACGACCGGCGTCTCTCGGAGTCACCTAGTGCAG,3360 fluorescence intensity (a.u.)
15,TGATGACGTCGTCACGCTGACACATGGGGCCCACGTGGGTCGGAGTCACCTAGTGCAG,19600 fluorescence intensity (a.u.)
16,GCATCATGTCACGTGTGACGCCCTCGTCTCCGTCCTACTCCGGAGTCACCTAGTGCAG,5710 fluorescence intensity (a.u.)
17,ATAATCAAACACGCCCCGTCACTTCGCCGCACACATCACACGGAGTCACCTAGTGCAG,5560 fluorescence intensity (a.u.)
18,ACGATCGATCCACCGACCAACGTGGCGACCCCTCATTGGTCGGAGTCACCTAGTGCAG,4610 fluorescence intensity (a.u.)
19,CCGGCAGCCCGGCACCACGTACGCCACCGCCATCTCACGCCGGAGTCACCTAGTGCAG,5100 fluorescence intensity (a.u.)
20,TGGGTCCTGCTTGATGACTCAGCAAGTCAACTGCCATATACGGAGTCACCTAGTGCAG,8180 fluorescence intensity (a.u.)
21,CTACTGAGCATAATTAATTTATAATTAGCATATGTGATAACGGAGTCACCTAGTGCAG,3370 fluorescence intensity (a.u.)

# Some of the entries so far, with bars between the fields.
row | Sequence | binding signal
1 | CTTCGTCGCTTCCGCGTGTCGTCACACTCCACTCCGTCCACGGAGTCACCTAGTGCAG | 5840 fluorescence intensity (a.u.)
6 | TCTGTAGCCGAAGTCACTTAACTTTATCACTGATATGTGGCGGAGTCACCTAGTGCAG | 3230 fluorescence intensity (a.u.)
9 | ATTACTCTCGCTGTCGCTGGCCGTGGCGTTCCTGGCCGCACGGAGTCACCTAGTGCAG | 3240 fluorescence intensity (a.u.)
10 | CCAAAGGGGCAAGCCTATACACTATTTACCTGAACTTTGCCGGAGTCACCTAGTGCAG | 3300 fluorescence intensity (a.u.)
12 | CTTGCTCTCCGCCAGCTCTGCCACCTCCTCGCACGCGCCGCGGAGTCACCTAGTGCAG | 3740 fluorescence intensity (a.u.)
14 | CCTCCTCCGGCTCCATCAGCTCGTCACGACCGGCGTCTCTCGGAGTCACCTAGTGCAG | 3360 fluorescence intensity (a.u.)
20 | TGGGTCCTGCTTGATGACTCAGCAAGTCAACTGCCATATACGGAGTCACCTAGTGCAG | 8180 fluorescence intensity (a.u.)

# The listing continues.

row,Sequence,binding signal
1,GAGGCGAGGCGACGGTACGTGTCCTCTTTTCTCTCTCGATCGGAGTCACCTAGTGCAG,4270 fluorescence intensity (a.u.)
2,GATGCATCATGCACCTGCCCTTCTAAATTAACCTTGCACGCGGAGTCACCTAGTGCAG,3150 fluorescence intensity (a.u.)
3,TTCCAACAATGCGCCCACGTCCGGGTAACATCCGGCGCTTCGGAGTCACCTAGTGCAG,3280 fluorescence intensity (a.u.)
4,CGTGTAAATACTACAAATCCGCCACCGCAACATTTTCATCCGGAGTCACCTAGTGCAG,3180 fluorescence intensity (a.u.)
5,GGGGCGAGGAGGTGGCTGGATGCTGCTGTCACCTCTGGGCCGGAGTCACCTAGTGCAG,4640 fluorescence intensity (a.u.)
6,TCAGCTCTCACCCGCGGGGAGAAGGGAGGAACACGGAGAACGGAGTCACCTAGTGCAG,30300 fluorescence intensity (a.u.)
7,AGGTGAGCCGGCGCTGAGTTTCCCACAGTCAGCGCCATTACGGAGTCACCTAGTGCAG,3250 fluorescence intensity (a.u.)
8,ATTGAAGTATCCTAGCTGTTTTCCTCTCAATCCGCTATCTCGGAGTCACCTAGTGCAG,3550 fluorescence intensity (a.u.)
9,CCCCGCTTCGCCGCCGGCCGCCTCTCTCTTCTCAAGAGTCCGGAGTCACCTAGTGCAG,3340 fluorescence intensity (a.u.)
10,ATCCCTCAAATTCCCGTGCGACACGTCTGCTGCTTCCATCCGGAGTCACCTAGTGCAG,6600 fluorescence intensity (a.u.)
11,CCGTTCAGTGACGATAAAGTCAGTGTTACCAAGTCATTCCCGGAGTCACCTAGTGCAG,3340 fluorescence intensity (a.u.)
12,TTTTAGCCAGCGAAATGCCACGTCATCATTTATGAGGGCACGGAGTCACCTAGTGCAG,14100 fluorescence intensity (a.u.)
13,ACGTTTACTCCCAGTACACACAAGACACTACTAGCTTAGACGGAGTCACCTAGTGCAG,3420 fluorescence intensity (a.u.)
14,ATGACACATGGTGAAGATACACGTTGAAACATGTCACTGTCGGAGTCACCTAGTGCAG,34000 fluorescence intensity (a.u.)
15,AAATACTACTCTTTACTGTATATAGTATGATTTAACTCATCGGAGTCACCTAGTGCAG,28800 fluorescence intensity (a.u.)
16,GTGCTGGCCAAATGGGCCGGGCCAAGGCCTCGGTAACCACCGGAGTCACCTAGTGCAG,42300 fluorescence intensity (a.u.)
17,GGCGGCGGAGGTGTCTCCGGCGGAGGCCGAGTCAGCGGCGCGGAGTCACCTAGTGCAG,3500 fluorescence intensity (a.u.)
18,CAAAAGGACCATGGTGTGTGGATGACATGACTAGTGAGGCCGGAGTCACCTAGTGCAG,4650 fluorescence intensity (a.u.)
19,GTAGTCATCCATGATCCATGCTTGTACGTGTGCTAGTGCTCGGAGTCACCTAGTGCAG,3430 fluorescence intensity (a.u.)
20,GCGGCGGCGGCGGCGGCGGTGTCGTCACCGTCGCGTTCCCCGGAGTCACCTAGTGCAG,5670 fluorescence intensity (a.u.)
21,CGCCGCGTGATTCCGTGGCATACTGCCATGGATGGCTGCTCGGAGTCACCTAGTGCAG,25800 fluorescence intensity (a.u.)
